{"source": "paper doi:10.1101/2022.07.08.499223", "system": "MBP-OsNLP4 (Oryza sativa (rice))", "assay": "EMSA", "settings": "competition with 5x, 10x, 50x unlabeled probe", "note": "Construct, isoform or probe ends are uncertain for at least one entry."}
{"sequence": "TCATGTCTCATCCTCACTAAGGTTGTTTTTTTTGGGACAAATGGA (double strand) [OsMADS27 promoter cis1 probe (NRE)]", "values": [{"measurement": "binding result", "result": "binds"}]}
